In publication PMC3472068, “Roles of the different components of magnesium chelatase in abscisic acid signal transduction” (Plant Molecular Biology, 2012):
Results are given in words; binding and its absence hold for the method and conditions named. Binding seen in cells or lysates may run through a third protein. Some entries that bind do so weakly or less than the wild type. For some of these results: Tags and fused reporters may be left off the sequences shown. One block for each binder: values may come before it.

Sequences of proteins named here, by UniProt entry; tags and fusion partners are left off. Residues count along the entry.
UniProt Q9SJE1, residues 50-760: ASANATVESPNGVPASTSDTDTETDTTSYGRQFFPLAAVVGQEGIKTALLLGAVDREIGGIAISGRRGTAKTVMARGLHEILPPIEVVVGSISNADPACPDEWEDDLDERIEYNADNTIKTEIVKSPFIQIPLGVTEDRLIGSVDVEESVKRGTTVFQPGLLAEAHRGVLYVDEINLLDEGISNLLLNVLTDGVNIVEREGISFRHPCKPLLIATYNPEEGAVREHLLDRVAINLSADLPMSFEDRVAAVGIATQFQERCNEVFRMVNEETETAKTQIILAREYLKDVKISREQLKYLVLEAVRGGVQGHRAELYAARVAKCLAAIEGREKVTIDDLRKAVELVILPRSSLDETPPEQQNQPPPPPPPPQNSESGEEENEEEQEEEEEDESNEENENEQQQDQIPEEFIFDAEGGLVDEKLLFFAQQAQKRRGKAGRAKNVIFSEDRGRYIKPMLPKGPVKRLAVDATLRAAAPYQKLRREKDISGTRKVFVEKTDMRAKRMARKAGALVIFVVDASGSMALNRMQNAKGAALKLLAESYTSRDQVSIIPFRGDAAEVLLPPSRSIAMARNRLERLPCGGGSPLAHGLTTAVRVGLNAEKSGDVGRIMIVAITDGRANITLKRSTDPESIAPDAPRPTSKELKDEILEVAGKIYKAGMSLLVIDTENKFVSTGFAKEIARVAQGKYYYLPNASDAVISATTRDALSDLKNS

Key:
[1] = biological target: CHLD (D subunit of Mg-chelatase), endogenous in Arabidopsis (Arabidopsis thaliana (endogenous in Arabidopsis total proteins)) (UniProt Q9SJE1); assay: co-IP; Arabidopsis total proteins (6 mg in 1 mL extraction buffer); IP with anti-CHLI1 or anti-CHLD serum, blot with anti-ABAR serum; preimmune serum as control
[2] = biological target: T1, CHLI1 (I subunit of Mg-chelatase), endogenous in Arabidopsis (Arabidopsis thaliana (endogenous in Arabidopsis total proteins)) (UniProt P16127); assay: as above
T1 sequence: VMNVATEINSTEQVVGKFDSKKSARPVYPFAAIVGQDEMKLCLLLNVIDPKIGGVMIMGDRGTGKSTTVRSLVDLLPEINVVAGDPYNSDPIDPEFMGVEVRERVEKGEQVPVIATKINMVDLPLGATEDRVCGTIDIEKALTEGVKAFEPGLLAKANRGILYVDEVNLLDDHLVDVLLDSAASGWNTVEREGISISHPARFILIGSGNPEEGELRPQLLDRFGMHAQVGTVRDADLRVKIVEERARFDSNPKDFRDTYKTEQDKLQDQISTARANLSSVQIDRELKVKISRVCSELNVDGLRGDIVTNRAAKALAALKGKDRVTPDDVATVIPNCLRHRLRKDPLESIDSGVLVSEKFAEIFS

[3] = biological target: CHLD-C-terminal half of Luc (CLuc) (Arabidopsis thaliana) (UniProt Q9SJE1); assay: split reporter; firefly luciferase complementation imaging (LCI) in N. benthamiana leaves infiltrated with Agrobacterium carrying NLuc and CLuc construct pairs; CCD imaging
[4] = biological target: T2, CHLI1-C-terminal half of Luc (CLuc) (Arabidopsis thaliana) (UniProt P16127); assay: as above
T2 sequence: T1 sequence

binding [1]: binds
binding [2]: binds
B1: CHLH/ABAR (H subunit of Mg-chelatase), endogenous in Arabidopsis (protein, UniProt Q9FNB0 50-1381)
chain: AVSGNGLFTQTNPEVRRIVPIKRDNVPTVKIVYVVLEAQYQSSLSEAVQSLNKTSRFASYEVVGYLVEELRDKNTYNNFCEDLKDANIFIGSLIFVEELAIKVKDAVEKERDRMDAVLVFPSMPEVMRLNKLGSFSMSQLGQSKSPFFQLFKRKKQGSAGFADSMLKLVRTLPKVLKYLPSDKAQDARLYILSLQFWLGGSPDNLQNFVKMISGSYVPALKGVKIEYSDPVLFLDTGIWHPLAPTMYDDVKEYWNWYDTRRDTNDSLKRKDATVVGLVLQRSHIVTGDDSHYVAVIMELEARGAKVVPIFAGGLDFSGPVEKYFVDPVSKQPIVNSAVSLTGFALVGGPARQDHPRAIEALKKLDVPYLVAVPLVFQTTEEWLNSTLGLHPIQVALQVALPELDGAMEPIVFAGRDPRTGKSHALHKRVEQLCIRAIRWGELKRKTKAEKKLAITVFSFPPDKGNVGTAAYLNVFASIFSVLRDLKRDGYNVEGLPENAETLIEEIIHDKEAQFSSPNLNVAYKMGVREYQDLTPYANALEENWGKPPGNLNSDGENLLVYGKAYGNVFIGVQPTFGYEGDPMRLLFSKSASPHHGFAAYYSYVEKIFKADAVLHFGTHGSLEFMPGKQVGMSDACFPDSLIGNIPNVYYYAANNPSEATIAKRRSYANTISYLTPPAENAGLYKGLKQLSELISSYQSLKDTGRGPQIVSSIISTAKQCNLDKDVDLPDEGLELSPKDRDSVVGKVYSKIMEIESRLLPCGLHVIGEPPSAMEAVATLVNIAALDRPEDEISALPSILAECVGREIEDVYRGSDKGILSDVELLKEITDASRGAVSAFVEKTTNSKGQVVDVSDKLTSLLGFGINEPWVEYLSNTKFYRANRDKLRTVFGFLGECLKLVVMDNELGSLMQALEGKYVEPGPGGDPIRNPKVLPTGKNIHALDPQAIPTTAAMASAKIVVERLVERQKLENEGKYPETIALVLWGTDNIKTYGESLGQVLWMIGVRPIADTFGRVNRVEPVSLEELGRPRIDVVVNCSGVFRDLFINQMNLLDRAIKMVAELDEPVEQNFVRKHALEQAEALGIDIREAATRVFSNASGSYSANISLAVENSSWNDEKQLQDMYLSRKSFAFDSDAPGAGMAEKKQVFEMALSTAEVTFQNLDSSEISLTDVSHYFDSDPTNLVQSLRKDKKKPSSYIADTTTANAQVRTLSETVRLDARTKLLNPKWYEGMMSSGYEGVREIEKRLSNTVGWSATSGQVDNWVYEEANSTFIQDEEMLNRLMNTNPNSFRKMLQTFLEANGRGYWDTSAENIEKLKELYSQVEDKIEGIDR

binding [3]: binds
binding [4]: binds
B2: ABAR-N-terminal half of Luc (ABAR-NLuc) (protein, UniProt Q9FNB0 50-1381)
chain: B1 chain
